# From US20060252916A1 (ELI LILLY AND COMPANY, priority 2002, published 2006)
# Legend:
# peptide synthesis = settings: whole synthesis
# [1] = general procedure: Boc solid-phase peptide synthesis; mbha-resin (Advanced ChemTech); symmetric anhydride and HOBt activated double couplings; settings: whole synthesis, scale of the general procedure 0.43 mmole
Substance,final purity (method not given) (peptide synthesis),final HPLC purity [1]
HVEGTFTSDVSSYLEEQAAKEFIAWLIKGRGK[3-(2-pyridyldithio)propanamide]-amide,approximately 95%,
HVEGTFTSDVSSYLEEQAAKEFIAWLIKGRGC(SSO3)-amide,,approximate purity of 90%
